No constants are given. Whether binding was seen depends on the method and setting. Binding seen in cells or lysates may run through a third protein. Some binding calls cover weakened binding; strength is not graded here.

Protein sequences, listed by entry. Tags and fused reporters are not part of them. Lines headed by an entry give the natural chain unless they say otherwise; changes in a name come on top.
UniProt Q96D31: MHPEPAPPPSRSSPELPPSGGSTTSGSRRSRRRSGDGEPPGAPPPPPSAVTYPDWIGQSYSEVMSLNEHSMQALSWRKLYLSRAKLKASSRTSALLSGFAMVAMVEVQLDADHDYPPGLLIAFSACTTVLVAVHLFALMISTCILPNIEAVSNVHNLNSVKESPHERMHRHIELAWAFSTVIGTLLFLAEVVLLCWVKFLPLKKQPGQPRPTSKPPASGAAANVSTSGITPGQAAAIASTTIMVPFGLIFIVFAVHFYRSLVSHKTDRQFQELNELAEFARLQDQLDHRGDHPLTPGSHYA

Binding data for four substances are collected here from patent US20080096227A1.

The target in experiment [1] is Flag-E106Q-CRACM1 (human) (UniProt Q96D31). Put plainly: co-immunoprecipitation, immunoblot. A general note: In western blotting, separated proteins are transferred to a membrane and probed.
For experiment [2], the target named is Flag-CRACM1 (human) (UniProt Q96D31). Put plainly: reverse co-immunoprecipitation from co-transfected HEK293 cells, immunoblot.
The target is the same in experiment [3]. In words: co-immunoprecipitation, immunoblot.
For experiment [4], the target named is CRACM1-Myc-His (human) (UniProt Q96D31). In words: co-immunoprecipitation from co-transfected HEK293 cells, immunoblot.
The target is the same in experiment [5]. In words: reciprocal co-immunoprecipitation from HEK293 cells, anti-tag immunoblot.
For experiment [6] the target is unchanged. Put plainly: co-immunoprecipitation, immunoblot.

On to “CRACM1-Myc-His (from UniProt Q96D31 1-301)”, for which the binding result (in experiment [1]; with Flag-CRACM1 (human) [2]) was “binds” each time.

In the case of “D110/112A-CRACM1-Myc-His (from UniProt Q96D31 1-301)”, in the experiment with Flag-CRACM1 (human) [3], the binding result is recorded as “binds”.

For Flag-CRACM1 (from UniProt Q96D31 1-301), the binding entry with CRACM1-Myc-His (human) [4] and in the experiment with CRACM1-Myc-His (human) [5] was “binds” in each case.

“Flag-E106Q-CRACM1 (from UniProt Q96D31 1-301)”: in the experiment with CRACM1-Myc-His (human) [6], the binding result is given as “binds”.
